The source of these data is PubChem BioAssay AID1347423 (Functional Genomics Laboratory (NCATS/FGL), 2020).

Among all 52,000 sequences or so, about 210 (0.4%) were called active.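 The calls were made as follows: active = gene whose silencing raises cell survival under the drug, median off-target-corrected z-score across its silencing RNAs 2 or more; inactive = the rest.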 The list shows a part of the results.

This assay in a line: Resistance to Poly (ADP-Ribose) Polymerase inhibitor: Gene Identification via Genome-wide siRNA Screen. As to conditions: mouse BRCA2 R2336H ES cells, olaparib, CellTiter-Glo viability; active compounds read high. The procedure, abridged: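 Mouse BRCA2 R2336H ES cells were reverse-transfected with siRNA (20 nM final), treated at 48 h with 500 nM olaparib, and read by CellTiter-Glo after 72 h. Scores: MAD-based z per siRNA, median per gene, seed off-target correction.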
With GGACAUCUGGGAAUACCUCTT against Actl7a, the z-score was inactive: 1.52.

Consider GGUGGGAAUGGGAAUCAGUTT against Akr1e1, for which the z-score is inactive: 1.57.

With GGGUAUUAUCAAGGAGGAGTT against Bclaf1, the z-score was inactive: -0.185.

In the case of GCAUACCCUAUUUAGUUUUTT against Gpr33, the z-score was inactive: -0.224.

As for “GGUGAAACUGAAUAAAAUCTT against 4931406C07Rik”, the z-score is inactive: 1.09.

For the sequence GCCGUAGUUAAGGUAUCUGTT against Butr1, the z-score was inactive: -0.663.

Regarding GGGAGACUAUCCUUGCUGGTT against Cryba2, the z-score is inactive: 1.37.

Take “GGCUAUGUUAUUGACAUGUTT against E230022H04Rik”: the z-score is inactive: 0.177.

Take GUCCCAAUACCUUCUUGUUTT against V1rc28: the z-score is inactive: -2.01.

In the case of “GGUUUUGUUCAGGGAUCAUTT against 2810423O19Rik”, the z-score was inactive: 0.327.

Turning to GGUGACAUGGAUGUAGCAATT against Fuk, the z-score was inactive: 0.792.

Turning to CCAUUCCAAAGGUAUUAGCTT against Olfr619, the z-score is inactive: -0.526.

As for “CCUCAGAGCCACGACAUUUTT against 2810438M17Rik”, the z-score is inactive: -1.08.

For GGGUGGUGUCUUCAAGUCATT against Nat3, the z-score was inactive: -0.519.

As for “CCAAAGCUUGCUUUAAAACTT against 1700034H14Rik”, the z-score is inactive: 0.564.

With GGUUUGCCUGCUGAUGACATT against Olfr883, the z-score was inactive: -0.443.

As for GGAACUUUGUCUUUCAUACTT against Clspn, the z-score is inactive: -2.86.

In the case of GGCUACGUUUUUGUAUUCUTT against Slc35d2, the z-score is inactive: 2.22.

With ACUGACCUUUGUUCCACAUTT against V1rc1, the z-score was inactive: -0.417.

For “GGACAUUUUUGUCUCUAAATT against 2310028N02Rik”, the z-score is inactive: 0.297.

Turning to GCCUUCAUUAUUUUAAUGCTT against Ilf3, the z-score was inactive: -0.226.

Take GGGAGGCUGUUGUCAAUCCTT against Krtap5-4: the z-score is inactive: 0.758.

GGAAAAAUUUCCAGAGGUUTT against Pnpt1: the z-score was inactive: 0.0471.

Take GGGCUGGUUCGAGCCAAUATT against Apoe: the z-score was inactive: 1.03.

Take “GGUUAACGAAGGAGAGAAGTT against 1700027N10Rik”: the z-score was inactive: -1.17.

For GGCCUCUUCACUUAUGUAUTT against Inha, the z-score was inactive: -1.12.

Consider GGUGGCUUUGGCUGCAUCUTT against Vrk1, for which the z-score was inactive: 1.23.

Turning to CCCACCGCCAUGACAUUAUTT against Klk15, the z-score is inactive: -0.64.

Consider “GGAUAUCACUUGCUAUUCCTT against C430003P19Rik”, for which the z-score was inactive: -0.334.

On to “CCUGUAGUUUGUUGAAUCUTT against 2410018L13Rik”, for which the z-score was inactive: 0.8.

Take “GGCAUUCUGAAAACAACUCTT against 0610039P13Rik”: the z-score was inactive: 0.0934.

Take GGAAAAGAUCACCAGGAGCTT against Pin1: the z-score is inactive: -0.355.

Take CCUCGCCUGUACUAGCUAUTT against Rilp: the z-score was inactive: 0.892.

As to GGACUUAAGUAAGAUGAAGTT against Pcqap, the z-score was inactive: 0.889.

GGGAUCCUAACAUCAGGGATT against Ly6c: the z-score was inactive: -0.773.

Turning to GGAAAUCACGACCAUGGCGTT against Gtf2b, the z-score is inactive: -0.26.

In the case of GCACUGAAGUUUAGUAAAATT against Stag3, the z-score was inactive: -0.903.

In the case of “GGAAUAAUCCCAGUUCUCUTT against 2610511E22Rik”, the z-score was inactive: 0.775.

With “GGUGGAGGAACGAAAGUUUTT against 2610028I09Rik”, the z-score was inactive: -1.07.

Take “GGAAUGGUUUUUCAAGACUTT against 4931409K22Rik”: the z-score is inactive: 0.0657.

Take GCAUGCAACUAUUUAUCCATT against Zfr: the z-score was inactive: -0.228.

As to GGGAAUCCGUCCCAAGAAGTT against Rrs1, the z-score is inactive: 0.798.

Consider “GGUUCACUCAACUCAACAATT against 1700094C09Rik”, for which the z-score is inactive: -0.25.

With “GGUACAGUUAAAGAAUCUGTT against 1110064P04Rik”, the z-score is inactive: -0.822.

With “GGCUGCACUAGACGAAUGCTT against 2600005C20Rik”, the z-score was inactive: 1.16.

Regarding GCUGUGAGCAAGAGUAAUCTT against BC011487, the z-score was inactive: -2.69.

For the sequence GGAUGUGAAGUCAGUUUCATT against BC025833, the z-score was inactive: 0.365.

For the sequence CCUCUGUAAGAUAAUGUUUTT against Ctsm, the z-score is inactive: -1.11.

In the case of GCACAAAUUUGAAGAUCUATT against Ptprb, the z-score was inactive: 0.608.

With “GGCUCUUAUUGCCCUAACCTT against 2310003F16Rik”, the z-score was inactive: 0.727.

On to GCAUUGGAGCUAAAUCUGGTT against Tcap, for which the z-score was inactive: 0.537.

On to “GGAAGUACAAACUACUAGUTT against 1110007A13Rik”, for which the z-score was inactive: -0.797.

For “GCUGAACCAAUGUAGAAUATT against 5730409F24Rik”, the z-score was inactive: 0.392.

Consider GGUUUUUGACUUGAGUCAUTT against Olfr689, for which the z-score is inactive: 0.642.

Turning to “GGAGGACUCUGCUUCCAUATT against 9430086K21Rik”, the z-score was inactive: -1.31.

Take GACAAGCUGUGGAGAAGUGTT against Sprrl5: the z-score was inactive: -2.45.

In the case of GGGAUUCUGUCUGCACUGUTT against Olfr1145, the z-score is inactive: 1.25.

Consider GGAGUAACUAUUCCCAAUUTT against Herc1, for which the z-score was inactive: -0.489.

With GGAAGAAUUUUCGCCAACATT against Iqcb1, the z-score is inactive: 0.354.

Turning to GGAGAGUACUUCCAGUAAGTT against Glycam1, the z-score was inactive: -0.511.

As to “GGAAAGCUAAUUUUGAAACTT against 5033428A16Rik”, the z-score is inactive: 2.22.

For GGUCUUUGAGACAGAUAUUTT against Colec12, the z-score was inactive: -0.251.

As to “GCAUAAAGAAGGAAUCACCTT against 5430413I02Rik”, the z-score is inactive: 0.327.

Turning to CCAUCUAAAGGCAUGCAAGTT against Cmah, the z-score was inactive: 1.49.

As for GGUGUUUGAUAAUGAAGAGTT against Dnahc1, the z-score is inactive: -0.421.
